## Primary screen of a compound library

Sequences of proteins named here, by UniProt entry; tags and fusion partners are left off.
UniProt P9WPC5, whole entry: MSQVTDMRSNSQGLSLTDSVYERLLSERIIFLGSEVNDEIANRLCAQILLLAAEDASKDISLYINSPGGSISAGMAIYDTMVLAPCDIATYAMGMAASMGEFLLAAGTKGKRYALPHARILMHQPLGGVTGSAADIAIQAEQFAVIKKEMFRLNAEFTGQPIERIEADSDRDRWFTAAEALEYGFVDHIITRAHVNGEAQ
UniProt P9WPC3, whole entry partner: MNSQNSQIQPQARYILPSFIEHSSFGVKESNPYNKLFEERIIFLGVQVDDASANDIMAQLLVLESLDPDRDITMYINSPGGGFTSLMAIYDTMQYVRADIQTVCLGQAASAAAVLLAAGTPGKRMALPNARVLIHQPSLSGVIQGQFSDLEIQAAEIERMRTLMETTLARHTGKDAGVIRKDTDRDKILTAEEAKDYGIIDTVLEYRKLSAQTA

Data taken from ChEMBL document CHEMBL3988442, “University of Dundee, Small-Polar-MMV Screening Library” (2021).

Each number is a percent effect as filed. The controls that fix the scale are not given in the record; negative values are as filed. Compounds were drawn at random from those tested, without regard to their results.

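ClpP1P2, Mycobacterium tuberculosis (UniProt P9WPC5 and UniProt P9WPC3). Protease assay of ClpP1P2, read by the AMC dye that it sets free. Concentration: 50 µM. Direction is inferred from only a few compounds that gave an IC50; most scored high, so higher reads as stronger inhibition. Most other retested compounds had strongly negative values. Size under these conditions: about 69,000 compounds, about 10 of them at 50% or above in at least one test.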

Result for CC(C)c1cc(C(=O)N2CCCC(n3cncn3)C2)n[nH]1 (stereo not given) was -4.463%.
Result for CCOc1ccc(C(=O)N2C[C@H]3CC[C@@H]2CN(C(=O)C2CCC2)C3)cc1 was -7.991%.
Result for COc1cccc([C@H]2CN(C(=O)c3scc4c3CCCC4)C[C@@H]2N)c1 was -31.26%.
Result for Cc1nccn1CC1CCCN(C(=O)c2cnn(C)c2)C1 (stereo not given) was 8.221%.
Result for CCc1ncc2c(n1)CN(C(=O)CC(C)NC(C)=O)C2 (stereo not given) was -22.18%.
Result for COCCc1noc(-c2ccc(-c3ccc(N)nc3)nc2)n1 was 5.843%.
Result for O=C(c1cscn1)N1CCCCC1c1nc2cc(F)ccc2[nH]1 (stereo not given) was -23.32%.
Result for Cc1nc(C(=O)NCc2ccc(N3CCNC(=O)C3)c(F)c2)cs1 was -1.387%.
Result for CCc1c(C)n(CCOC)c2nc3ccccc3n2c1=O was -13.79%.
Result for OCCN1CCc2[nH]nc(C(c3ccccc3)c3ccccc3)c2C1 was 2.859%.
Result for CCN(c1ccc(C(=O)NCCCN2CCCC2)cc1)S(=O)(=O)CC was -5.287%.
Result for CCO[C@H]1CN(C(=O)c2ccnnc2)[C@@H]2COC[C@H]12 was 0.4894%.
Result for Cc1ccc(C(=O)NC(CN2CCCC2)c2ccccc2)c(=O)[nH]1 (stereo not given) was 1.76%.
Result for CCCc1nc(C(C)(C)NC(=O)C2CC(=O)N(CCOC)C2)no1 (stereo not given) was -2.755%.
Result for CCc1nccn1CC(=O)N1CCN(C2CCc3ccccc3C2)CC1 (stereo not given) was -2.142%.
Result for COc1cccc(N2CCN(CC[C@H](O)c3ccccc3)CC2=O)c1 was 0.2145%.
Result for CCOC(=O)N1CC(=O)N(Cc2ccc(OC)cc2)CC(O)C1 (stereo not given) was 12.51%.
Result for CC(C)N(C)CCC(=O)N1CCCC(c2ccc(C(=O)O)cc2)C1 (stereo not given) was -4.272%.
Result for COc1ccc(CNCC(C)Oc2ccccn2)cc1 (stereo not given) was -0.2997%.
Result for COCCn1c(=O)n(C)c(=O)c2ccc(C3CCC(CN)CC3)nc21 (stereo not given) was -2.723%.
Result for Cc1cccc(CN2CCS(=O)(=O)[C@@H]3CCN(C(=O)C4CC4)CC[C@@H]32)n1 was 7.812%.
Result for COc1ccc(Cn2ccnc2)cc1F was -13.37%.
Result for Cn1ccc2ccc(C(=O)NC3CCOC(C)(C)C3)cc21 (stereo not given) was -13.16%.
Result for COc1nc2ccn(CCc3cnccn3)c(=O)c2cc1C#N was 10.91%.
Result for CCCOC(=O)N1CCn2nc(-c3nc4ccccc4n3C)cc2C1 was -12.7%.
Result for O=C(c1cnccn1)N1C[C@@H]2OCC(=O)N(CC3CCCCC3)[C@@H]2C1 was -5.001%.
Result for CC(C)(O)CCc1ccc(C(=O)NCC2CCCOC2)cc1 (stereo not given) was -12.75%.
Result for CC(C)C(=O)N1CCC2(CC1)NC(=O)[C@H]1CN(C(=O)N(C)C)C[C@H]12 was -7.384%.
Result for CC(C)N(C)C(=O)C1CSCN1S(=O)(=O)c1cccs1 (stereo not given) was -0.1055%.
Result for Cc1ccc(CN2C[C@@H]3CCCO[C@@H]3[C@H](NC(=O)CC3CC3)C2)s1 was -13.09%.
Result for CCN(CC)CCC(=O)NCc1cc2n(n1)CCN(C(=O)N(C)C)C2 was -3.243%.
Result for O=C(CNc1cc2c(cc1Br)OCCO2)NC1CCS(=O)(=O)C1 (stereo not given) was 10.74%.
Result for O=C(O)C(c1cccc2c1OCC2)N1CCC(N2CCSCC2)CC1 (stereo not given) was -11.03%.
Result for Cc1cc(C)nc(N2CCC(C(=O)Nc3ccc(C(C)C)cc3)CC2)n1 was -3.914%.
Result for CCNC(=O)N1CCCCC1CCO (stereo not given) was -24.3%.
Result for CN(C)C(=O)c1ccc2c(c1)N(C)C(CC(=O)NCc1ccno1)CO2 (stereo not given) was 7.245%.
Result for CN1CC(c2ccccc2)C2(CCN(C(=O)c3ccc[nH]3)CC2)C1=O (stereo not given) was -2.35%.
Result for CN(C)S(=O)(=O)c1ccc(F)c(NC(=O)COCC2CC2)c1 was -3.341%.
Result for COc1ccc(-c2ncccc2C(=O)N2C[C@H]3CC[C@@H]2C3)cn1 was -2.588%.
Result for N#Cc1ccc(S(=O)(=O)Nc2ccccc2C#N)cn1 was 3.509%.
Result for Cc1cc(C)n(Cc2cc(C(=O)N[C@H]3CCCCNC3=O)n[nH]2)n1 was 3.436%.
Result for COC(=O)c1ccc(NC(=O)CCNCc2ccco2)cc1 was -6.043%.
Result for CCc1cccc(N2CCC(NC(=O)CCNC(N)=O)CC2)c1 was -1.986%.
Result for Cc1ccccc1CN(C)C(=O)CN1CCOC(Cn2cncn2)C1 (stereo not given) was -6.084%.
Result for O=C(c1ccc(Cl)o1)N1CCCN(Cc2cscn2)CC1 was 2.307%.
Result for c1ccc(-c2noc([C@@H]3Cc4nc[nH]c4CN3)n2)cc1 was -10.4%.
Result for C/C=C(\C)CN1C[C@H](NC(=O)c2cc[nH]c2C)[C@@H](C2CC2)C1 was -1.279%.
Result for Cc1nn(C)c2nc(N3CCCCC3c3ccc(F)cc3)sc12 (stereo not given) was -8.801%.
Result for CC(C)N(Cc1cccnc1)C(=O)CCSc1ccc(C#N)cc1 was 15.94%.
Result for Cc1nnc(CN(Cc2cccc3c2OCO3)CC2CCCO2)n1C (stereo not given) was 2.125%.
Result for Cc1cc(Br)cnc1NCCN1CCC(N(C)C)CC1 was 10.53%.
Result for Cc1nc(O)cc(C2CCCN(C(=O)COCc3ccccc3)C2)n1 (stereo not given) was -7.57%.
Result for CC(C)N(C)[C@@H]1CCN(S(C)(=O)=O)[C@H]1Cc1ccccc1 was 1.053%.
Result for CCc1ccc(OCC(=O)N2CCN(CC)CC2)cc1 was -17.38%.
Result for O=C(c1cnccn1)N1CC[C@H]2[C@H]1CCN2S(=O)(=O)C1CC1 was -13.11%.
Result for CC1CN(Cc2noc(C3CC3)n2)CCN1Cc1nccn1C (stereo not given) was -0.99%.
Result for CCN(CC(=O)Nc1cc(Cl)ccc1C)C(=O)c1ccncc1 was -2.191%.
Result for COCCC1(CO)CCCN(C(=O)c2cccnc2O)C1 (stereo not given) was -1.272%.
Result for CN(Cc1cccc(F)c1)C(=O)CN1CCOC(Cn2cccn2)C1 (stereo not given) was 2.408%.

6 of the entries, repeated:

With CC1CN(Cc2noc(C3CC3)n2)CCN1Cc1nccn1C (stereo not given) the screen gave -0.99%.
With COc1ccc(Cn2ccnc2)cc1F the screen gave -13.37%.
With CC(C)N(C)[C@@H]1CCN(S(C)(=O)=O)[C@H]1Cc1ccccc1 the screen gave 1.053%.
With CC(C)N(C)CCC(=O)N1CCCC(c2ccc(C(=O)O)cc2)C1 (stereo not given) the screen gave -4.272%.
With CC(C)N(C)C(=O)C1CSCN1S(=O)(=O)c1cccs1 (stereo not given) the screen gave -0.1055%.
With CCc1nccn1CC(=O)N1CCN(C2CCc3ccccc3C2)CC1 (stereo not given) the screen gave -2.142%.